Laboratory results as given in patent EP4628097A1 (Innovent Biologics (Suzhou) Co., Ltd., dated 2025).
These are yes or no findings as the source states them, for the method shown. Some results given as binding are weak or reduced against the parent protein; the word gives no strength.

Sequences of proteins named here, by UniProt entry; tags and fusion partners are left off. A change or cut given only in a name is not applied to a line headed by its entry. Residues count along the entry.
UniProt O15123, residues 19-496: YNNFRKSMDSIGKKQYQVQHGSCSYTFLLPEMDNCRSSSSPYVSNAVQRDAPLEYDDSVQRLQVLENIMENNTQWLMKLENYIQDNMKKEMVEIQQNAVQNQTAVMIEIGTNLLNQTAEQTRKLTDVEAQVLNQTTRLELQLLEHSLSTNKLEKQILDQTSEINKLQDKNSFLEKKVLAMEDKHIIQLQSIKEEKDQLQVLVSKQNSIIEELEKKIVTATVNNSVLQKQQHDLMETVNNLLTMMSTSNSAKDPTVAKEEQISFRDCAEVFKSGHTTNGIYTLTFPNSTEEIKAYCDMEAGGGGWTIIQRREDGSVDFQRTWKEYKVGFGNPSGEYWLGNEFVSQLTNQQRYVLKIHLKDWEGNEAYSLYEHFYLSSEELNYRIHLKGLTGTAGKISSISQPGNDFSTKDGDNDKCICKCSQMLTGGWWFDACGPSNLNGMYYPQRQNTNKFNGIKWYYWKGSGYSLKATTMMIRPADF

Biological target: hAng2-Fc (Beijing Sino Biological, Catalog No. 10691-H02H) (human) (UniProt O15123)
Experiment: flow cytometry blocking: hAng2-Fc on 293-Tie2 cells, antibody titrated from 400 nM

- binding: binds
B1: IEX04-008 (bispecific antibody)
chain: EVQLLESGGGLVQPGGSLRLSCAASGSIFSINAMGWHRQAPGKQRELVATMIGGSSTFYAESVQGRFTISRDNSKNTVYLQMNSLRAEDTAVYYCYADVTGRSGTSIWNKRDDYWGQGTQVTVSSGGGGSGGGGSEVQLLESGGGLVQPGGSLRLSCAASGSIFSINAMGWHRQAPGKQRELVATMIGGSSTFYAESVQGRFTISRDNSKNTVYLQMNSLRAEDTAVYYCYADVTGRSGTSIWNKRDDYWGQGTQVTVSSGGGGSGGGGSEVQLLESGGGLVQPGGSLRLSCAASGFALDYYAIGWFRQAPGKGLEGVSCISSGEGSTYYADSVKGRFTISRDNSKNTVYLQMNSLRAEDTAVYYCATDSRGDDVACEGLRRNEYDYWGQGTLVTVSS
notes: expressed in 293 cells; also called LA46E11.8 (VHH) + linker + LA46E11.8 (VHH) + LA24C11.10
